No constants are given. Whether binding was seen depends on the method and setting. In cells and extracts the contact can be indirect. Some binding calls cover weakened binding; strength is not graded here. Sequences can lack the tags named with a protein.
T1: GFP-tagged aPKCι (UniProt P41743)
T1 sequence: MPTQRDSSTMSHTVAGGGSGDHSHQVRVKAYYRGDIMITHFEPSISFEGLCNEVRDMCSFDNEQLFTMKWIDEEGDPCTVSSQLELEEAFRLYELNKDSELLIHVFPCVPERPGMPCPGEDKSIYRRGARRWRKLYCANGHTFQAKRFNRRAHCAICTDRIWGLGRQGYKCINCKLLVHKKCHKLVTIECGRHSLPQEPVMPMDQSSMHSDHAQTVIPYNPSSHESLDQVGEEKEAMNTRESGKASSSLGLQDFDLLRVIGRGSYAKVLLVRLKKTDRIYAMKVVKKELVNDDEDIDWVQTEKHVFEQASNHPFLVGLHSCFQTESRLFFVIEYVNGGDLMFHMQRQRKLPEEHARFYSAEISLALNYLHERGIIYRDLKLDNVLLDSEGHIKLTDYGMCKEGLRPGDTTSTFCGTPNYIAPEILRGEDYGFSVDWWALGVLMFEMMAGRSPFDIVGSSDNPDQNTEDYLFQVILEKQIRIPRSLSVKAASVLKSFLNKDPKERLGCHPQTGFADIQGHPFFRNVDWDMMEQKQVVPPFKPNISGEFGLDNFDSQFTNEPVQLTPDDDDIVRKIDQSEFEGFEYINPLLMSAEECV

T2: aPKCι kinase domain (expressed in cells) (UniProt P41743)
T2 sequence: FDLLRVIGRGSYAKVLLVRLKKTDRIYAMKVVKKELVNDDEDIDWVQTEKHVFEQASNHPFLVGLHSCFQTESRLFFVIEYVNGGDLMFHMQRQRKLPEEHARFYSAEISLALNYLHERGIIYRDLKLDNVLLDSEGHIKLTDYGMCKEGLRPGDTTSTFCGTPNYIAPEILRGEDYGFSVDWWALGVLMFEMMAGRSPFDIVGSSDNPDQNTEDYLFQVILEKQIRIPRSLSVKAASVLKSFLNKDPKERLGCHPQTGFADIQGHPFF


How the values were obtained:
GFP-tagged aPKCι [1] = molecular target: T1, GFP-tagged aPKCι; assay: co-IP; HCT116 cells co-transfected; GFP-Trap-M or FLAG-M2 beads, 4°C, 90 min; lysis buffer 20 mM Tris-HCl pH 8, 130 mM NaCl, 1% Triton X-100, 1 mM DTT, 10 mM NaF; some samples with the aPKCι inhibitor CRT0066854
GFP-tagged aPKCι [2] = molecular target: T1, GFP-tagged aPKCι; assay: FRET or BRET; FRET-FLIM in cells; GFP–PKCι as donor, FARP2–FLAG labelled with an Alexa Fluor 647 antibody as acceptor; regions of cell membranes
[3] = molecular target: T2, aPKCι kinase domain (expressed in cells); assay: co-IP; aPKCι kinase domain alone with FARP2; method not given, taken from its context (co-immunoprecipitation, deletion mapping)

Row | Binder | binding (GFP-tagged aPKCι [1]) | binding (GFP-tagged aPKCι [2]) | binding [3]
1 | FLAG-tagged FARP2 (WT) (protein, UniProt O94887 1-1054) MGEIEGTYRVLQTAGMRLGAQTPVGVSTLEPGQTLLPRMQEKHLHLRVKLLDNTMEIFDIEPKCDGQVLLTQVWKRLNLVECDYFGMEFQNTQSYWIWLEPMKPIIRQIRRPKNVVLRLAVKFFPPDPGQLQEEYTRYLFALQLKRDLLEERLTCADTTAALLTSHLLQSEIGDYDETLDREHLKVNEYLPGQQHCLEKILEFHQKHVGQTPAESDFQVLEIARKLEMYGIRFHMASDREGTKIQLAVSHMGVLVFQGTTKINTFNWSKVRKLSFKRKRFLIKLHPEVHGPYQDTLEFLLGSRDECKNFWKICVEYHTFFRLLDQPKPKAKAVFFSRGSSFRYSGRTQKQLVDYFKDSGMKRIPYERRHSKTHTSVRALTADLPKQSISFPEGLRTPASPSSANAFYSLSPSTLVPSGLPEFKDSSSSLTDPQVSYVKSPAAERRSGAVAGGPDTPSAQPLGPPALQPGPGLSTKSPQPSPSSRKSPLSLSPAFQVPLGPAEQGSSPLLSPVLSDAGGAGMDCEEPRHKRVPADEAYFIVKEILATERTYLKDLEVITVWFRSAVVKEDAMPATLMTLLFSNIDPIYEFHRGFLREVEQRLALWEGPSKAHTKGSHQRIGDILLRNMRQLKEFTSYFQRHDEVLTELEKATKRCKKLEAVYKEFELQKVCYLPLNTFLLKPIQRLLHYRLLLRRLCGHYSPGHHDYADCHDALKAITEVTTTLQHILIRLENLQKLTELQRDLVGIENLIAPGREFIREGCLHKLTKKGLQQRMFFLFSDMLLYTSKGVAGTSHFRIRGLLPLQGMLVEESDNEWSVPHCFTIYAAQKTIVVAASTRLEKEKWMLDLNSAIQAAKSGGDTAPALPGRTVCTRPPRSPNEVSLEQESEDDARGVRSSLEGHGQHRANTTMHVCWYRNTSVSRADHSAAVENQLSGYLLRKFKNSHGWQKLWVVFTNFCLFFYKTHQDDYPLASLPLLGYSVSIPREADGIHKDYVFKLQFKSHVYFFRAESKYTFERWMEVIQGASSSAGRAPSIVQDGPQPSSGLEGMVRGKEE | binds | binds | binds
2 | FLAG-tagged FARP1 (protein, UniProt Q9Y4F1 1-1045) MGEIEQRPTPGSRLGAPENSGISTLERGQKPPPTPSGKLVSIKIQMLDDTQEAFEVPQRAPGKVLLDAVCNHLNLVEGDYFGLEFPDHKKITVWLDLLKPIVKQIRRPKHVVVKFVVKFFPPDHTQLQEELTRYLFALQVKQDLAQGRLTCNDTSAALLISHIVQSEIGDFDEALDREHLAKNKYIPQQDALEDKIVEFHHNHIGQTPAESDFQLLEIARRLEMYGIRLHPAKDREGTKINLAVANTGILVFQGFTKINAFNWAKVRKLSFKRKRFLIKLRPDANSAYQDTLEFLMASRDFCKSFWKICVEHHAFFRLFEEPKPKPKPVLFSRGSSFRFSGRTQKQVLDYVKEGGHKKVQFERKHSKIHSIRSLASQPTELNSEVLEQSQQSTSLTFGEGAESPGGQSCRRGKEPKVSAGEPGSHPSPAPRRSPAGNKQADGAASAPTEEEEEVVKDRTQQSKPQPPQPSTGSLTGSPHLSELSVNSQGGVAPANVTLSPNLSPDTKQASPLISPLLNDQACPRTDDEDEGRRKRFPTDKAYFIAKEVSTTERTYLKDLEVITSWFQSTVSKEDAMPEALKSLIFPNFEPLHKFHTNFLKEIEQRLALWEGRSNAQIRDYQRIGDVMLKNIQGMKHLAAHLWKHSEALEALENGIKSSRRLENFCRDFELQKVCYLPLNTFLLRPLHRLMHYKQVLERLCKHHPPSHADFRDCRAALAEITEMVAQLHGTMIKMENFQKLHELKKDLIGIDNLVVPGREFIRLGSLSKLSGKGLQQRMFFLFNDVLLYTSRGLTASNQFKVHGQLPLYGMTIEESEDEWGVPHCLTLRGQRQSIIVAASSRSEMEKWVEDIQMAIDLAEKSSSPAPEFLASSPPDNKSPDEATAADQESEDDLSASRTSLERQAPHRGNTMVHVCWHRNTSVSMVDFSIAVENQLSGNLLRKFKNSNGWQKLWVVFTNFCLFFYKSHQDNHPLASLPLLGYSLTIPSESENIQKDYVFKLHFKSHVYYFRAESEYTFERWMEVIRSATSSASRPHVLSHKESLVY | binds |  | 

More lines, now with the values ahead:

Row | binding (GFP-tagged aPKCι [1]) | binding (GFP-tagged aPKCι [2]) | binding [3] | Binder
3 | binds |  |  | FARP2 S340A/S370A (protein, UniProt O94887 1-1054) MGEIEGTYRVLQTAGMRLGAQTPVGVSTLEPGQTLLPRMQEKHLHLRVKLLDNTMEIFDIEPKCDGQVLLTQVWKRLNLVECDYFGMEFQNTQSYWIWLEPMKPIIRQIRRPKNVVLRLAVKFFPPDPGQLQEEYTRYLFALQLKRDLLEERLTCADTTAALLTSHLLQSEIGDYDETLDREHLKVNEYLPGQQHCLEKILEFHQKHVGQTPAESDFQVLEIARKLEMYGIRFHMASDREGTKIQLAVSHMGVLVFQGTTKINTFNWSKVRKLSFKRKRFLIKLHPEVHGPYQDTLEFLLGSRDECKNFWKICVEYHTFFRLLDQPKPKAKAVFFSRGSAFRYSGRTQKQLVDYFKDSGMKRIPYERRHAKTHTSVRALTADLPKQSISFPEGLRTPASPSSANAFYSLSPSTLVPSGLPEFKDSSSSLTDPQVSYVKSPAAERRSGAVAGGPDTPSAQPLGPPALQPGPGLSTKSPQPSPSSRKSPLSLSPAFQVPLGPAEQGSSPLLSPVLSDAGGAGMDCEEPRHKRVPADEAYFIVKEILATERTYLKDLEVITVWFRSAVVKEDAMPATLMTLLFSNIDPIYEFHRGFLREVEQRLALWEGPSKAHTKGSHQRIGDILLRNMRQLKEFTSYFQRHDEVLTELEKATKRCKKLEAVYKEFELQKVCYLPLNTFLLKPIQRLLHYRLLLRRLCGHYSPGHHDYADCHDALKAITEVTTTLQHILIRLENLQKLTELQRDLVGIENLIAPGREFIREGCLHKLTKKGLQQRMFFLFSDMLLYTSKGVAGTSHFRIRGLLPLQGMLVEESDNEWSVPHCFTIYAAQKTIVVAASTRLEKEKWMLDLNSAIQAAKSGGDTAPALPGRTVCTRPPRSPNEVSLEQESEDDARGVRSSLEGHGQHRANTTMHVCWYRNTSVSRADHSAAVENQLSGYLLRKFKNSHGWQKLWVVFTNFCLFFYKTHQDDYPLASLPLLGYSVSIPREADGIHKDYVFKLQFKSHVYFFRAESKYTFERWMEVIQGASSSAGRAPSIVQDGPQPSSGLEGMVRGKEE
4 | binds |  |  | FARP2 S340A (protein, UniProt O94887 1-1054) MGEIEGTYRVLQTAGMRLGAQTPVGVSTLEPGQTLLPRMQEKHLHLRVKLLDNTMEIFDIEPKCDGQVLLTQVWKRLNLVECDYFGMEFQNTQSYWIWLEPMKPIIRQIRRPKNVVLRLAVKFFPPDPGQLQEEYTRYLFALQLKRDLLEERLTCADTTAALLTSHLLQSEIGDYDETLDREHLKVNEYLPGQQHCLEKILEFHQKHVGQTPAESDFQVLEIARKLEMYGIRFHMASDREGTKIQLAVSHMGVLVFQGTTKINTFNWSKVRKLSFKRKRFLIKLHPEVHGPYQDTLEFLLGSRDECKNFWKICVEYHTFFRLLDQPKPKAKAVFFSRGSAFRYSGRTQKQLVDYFKDSGMKRIPYERRHSKTHTSVRALTADLPKQSISFPEGLRTPASPSSANAFYSLSPSTLVPSGLPEFKDSSSSLTDPQVSYVKSPAAERRSGAVAGGPDTPSAQPLGPPALQPGPGLSTKSPQPSPSSRKSPLSLSPAFQVPLGPAEQGSSPLLSPVLSDAGGAGMDCEEPRHKRVPADEAYFIVKEILATERTYLKDLEVITVWFRSAVVKEDAMPATLMTLLFSNIDPIYEFHRGFLREVEQRLALWEGPSKAHTKGSHQRIGDILLRNMRQLKEFTSYFQRHDEVLTELEKATKRCKKLEAVYKEFELQKVCYLPLNTFLLKPIQRLLHYRLLLRRLCGHYSPGHHDYADCHDALKAITEVTTTLQHILIRLENLQKLTELQRDLVGIENLIAPGREFIREGCLHKLTKKGLQQRMFFLFSDMLLYTSKGVAGTSHFRIRGLLPLQGMLVEESDNEWSVPHCFTIYAAQKTIVVAASTRLEKEKWMLDLNSAIQAAKSGGDTAPALPGRTVCTRPPRSPNEVSLEQESEDDARGVRSSLEGHGQHRANTTMHVCWYRNTSVSRADHSAAVENQLSGYLLRKFKNSHGWQKLWVVFTNFCLFFYKTHQDDYPLASLPLLGYSVSIPREADGIHKDYVFKLQFKSHVYFFRAESKYTFERWMEVIQGASSSAGRAPSIVQDGPQPSSGLEGMVRGKEE

— paper PMC6503954
